Measured values reported in PubChem BioAssay AID1347075 (National Center for Advancing Translational Sciences (NCATS), 2019).
Out of some 400,000 compounds screened, about 5,500 (1.4%) were called active. Inconclusive means that the source gave no clear call. Such entries were picked first, then a sample of the others. Calls come from the whole dose curve; as a rule, active = well fitted cell-killing curve with a large enough effect; inconclusive = small, poorly fitted or top-dose-only effect, or effect the other way; inactive = flat fitted curve, though single readings scatter. Potencies of inconclusive entries are doubtful fits and often do not repeat.

assay: qHTS assay for MDR1-selective chemotherapeutics: Primary screen using the parental adenocarcinoma cell KB-3-1; details: KB-3-1 viability, CellTiter-Glo ATP luminescence, 72 h; series mostly up to 46.1 µM; note: nearly all actives have a fitted effect of over 60% in size
Method in brief: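 Multi-concentration cytotoxicity screen in KB-3-1 cells grown in DMEM lacking phenol red with 10% FBS. After 72 h at 37 °C with compound, ATP-dependent luminescence was recorded.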
Potency is the fitted concentration of half-maximal effect.

Compound | Potency
Cc1ccsc1C(=O)OCC(=O)N(Cc1ccccc1)C(C)C | inconclusive: 29.1 µM [rising, single point]
S=C(NCCCCNC(=S)NCc1ccccc1)NCc1ccccc1 | inconclusive: 16.4 µM [rising, partial curve, poor fit]
CCCOc1cccc(C(=O)NC(=S)Nc2ccc(N3CCN(C)CC3)cc2)c1 | inconclusive: 29.1 µM [cytotoxic, single point]
C/C(CC(=O)Nc1cccnc1)=N/NC(=O)COc1ccc(Cl)cc1Br | inconclusive: 9.2 µM [rising, single point]
Cc1cc(C)cc(NC(=O)CSCn2nnc3c(=O)[nH]c(Cc4ccc(F)cc4)nc32)c1 | inactive
O=S(=O)(Nc1cccc2ncccc12)c1cccs1 | inconclusive: 5.8 µM [cytotoxic, full curve, poor fit]
Cc1ccc(-c2cc(C(=O)NCc3ccccn3)c3ccccc3n2)cc1 | inactive
N#Cc1c(-c2ccccc2)cc(-c2ccccc2)nc1SCCC(=O)O | inconclusive: 18.4 µM [cytotoxic, single point]
COc1ccccc1CCNC(=O)CCn1c(=O)c2cccn2c2ccc(F)cc21 | inactive
C=CCNC(=O)c1ccc(Cn2cc(C(F)(F)F)ccc2=O)cc1 | inactive
Clc1nccc2c1ccc1ccccc12 | inactive
O=C(NC1CCCC1)c1cc2nc(-c3ccccc3)cc(-c3ccccc3)n2n1 | inactive
CCOC(=O)c1cc(-c2ccc(F)cc2)n(CCC(=O)NC2CCN(Cc3ccccc3)CC2)c1C | inconclusive: 29.1 µM [cytotoxic, single point]
COc1cccc(C(=O)NC2CCCc3c2cnn3-c2cc(C)cc(C)c2)c1 (stereo not drawn) | inconclusive: 23.1 µM [cytotoxic, partial curve, poor fit]
C=CCOc1ccc(C2CC(C)=NN2c2ccccc2)cc1 (stereo not drawn) | inactive
Cc1sc2nc(SCC(=O)NCCO)n(C)c(=O)c2c1C | inactive
NC(=O)CSc1nc2cc(S(=O)(=O)N3CCOCC3)ccc2o1 | inactive
CSc1ccccc1NC(=O)COc1ccc(Cl)cc1C | inconclusive: 16.4 µM [cytotoxic, partial curve, poor fit]
Cc1ccc(C)c(C(Nc2ccccc2)c2ccc3ccc(C)nc3c2O)c1 (stereo not drawn) | inconclusive: 4.61 µM [cytotoxic, full curve, poor fit]
COc1ccc(C(=O)Nc2ccc(NC(=O)c3cccs3)cc2)cc1[N+](=O)[O-] | inconclusive: 8.2 µM [rising, partial curve, poor fit]
Cc1cc(=O)oc2cc(OCc3cc4c(cc3Cl)OCO4)ccc12 | inconclusive: 6.51 µM [cytotoxic, full curve, poor fit]
CCN1CCN(C(=O)CCc2nnc(CCc3ccc(OC)cc3)o2)[C@@H](C)C1=O | inactive
O=C(Nc1cc(C(F)(F)F)ccc1Cl)c1cc(S(=O)(=O)NCc2ccccc2)ccc1F | inactive
COc1ccc(OC)c(C(C)NC(=O)c2ccco2)c1 (stereo not drawn) | inconclusive: 20.6 µM [cytotoxic, single point]

Compound | Potency
CCOC(=O)CC(c1ccc(N)cc1)n1c(C)ccc1C (stereo not drawn) | inactive
O=C(Nc1ccn(CCCN2CCN(c3ccccc3)CC2)c(=O)n1)OCc1ccccc1 | inconclusive: 16.4 µM [cytotoxic, single point]
Cc1ccc(OCC(=O)Nc2ccc3nc(SCc4ccccc4)sc3c2)cc1 | inactive
Fc1ccc(NC(=S)NCc2cccs2)cc1 | inconclusive: 29.1 µM [cytotoxic, single point]
COc1ccc(OCCSc2ccc(S(=O)(=O)N3CCCC3)cn2)cc1 | inconclusive: 10.3 µM [cytotoxic, partial curve]
COC1CCN(C(=O)C2CCC(=O)N(C3CCCCCC3)C2)CC1 (stereo not drawn) | inactive
COc1c(N2CCN(C(=S)Nc3ccccc3F)C(C)C2)c(F)cc2c(=O)c(C(=O)O)cn(C3CC3)c12 (stereo not drawn) | inconclusive: 16.4 µM [cytotoxic, single point]
O=C(Nc1ncc(Cc2cccc([N+](=O)[O-])c2)s1)c1ccco1 | active: 5.8 µM
CCC1Nc2ncnc(N3CCCCC3)c2N(Cc2ccc(OC)cc2)C1=O (stereo not drawn) | inconclusive: 0.82 µM [cytotoxic, full curve]
O=C(Nc1ccc2ccccc2c1)Nc1ccc2snnc2c1 | inconclusive: 29.1 µM [cytotoxic, single point]
Oc1ccc(Cl)cc1-c1cc(-c2ccccc2)n[nH]1 | inconclusive: 20.6 µM [cytotoxic, single point]
COc1ccc(NC(=O)c2cc(-c3ccco3)on2)c(OC)c1 | inactive
CC(c1ccccc1)C(CC(=O)O)C(=O)Nc1ccc(Cl)c(Cl)c1 (stereo not drawn) | inactive
CCOc1cc(/C=N\NC(=O)Cc2ccccc2)ccc1OCC(=O)Nc1ccc(C)c(C)c1 | inconclusive: 18.4 µM [cytotoxic, single point]
COc1cc(/C=C2\SC(=S)N(CCC(=O)N3CCN(C)CC3)C2=O)cc(OC)c1OC | inconclusive: 18.4 µM [cytotoxic, single point]
COc1ccc(-c2c(Sc3ccccc3)c3cc(-c4ccc5c(c4)OCO5)ccc3n2C)cc1 | inactive
C#CCN1CCc2onc(-c3ccc(Br)cc3)c2C1=O | inconclusive: 20.6 µM [cytotoxic, single point]
O=C(c1c(F)cccc1F)N(Cc1ccccn1)C1CCCC1 | inactive
O=C(O)/C=C/c1ccc(S(=O)(=O)N(CCO)CCO)cc1 | inconclusive: 29.1 µM [rising, single point]
COc1ccc(Nc2ccc3cc(S(=O)(=O)N4CCCC4)ccc3n2)cc1Cl | inactive
CCCN(CCC)CCNC(=O)C1CCN(S(=O)(=O)c2cccc3nsnc23)CC1 | inconclusive: 16.4 µM [rising, partial curve, poor fit]
Cc1sc(NC(=O)CN(C(=O)c2ccccc2F)C2CCCC2)c(C(N)=O)c1C | inactive
CN(C)c1nc(=NCc2cccs2)ss1 | inconclusive: 0.0046 µM [cytotoxic, full curve, poor fit]
Cc1cccc2cc3ccccc3nc12 | inconclusive: 23.1 µM [rising, partial curve]

Fetched one by one from the list above, three records:
Compound | Potency
COc1ccc(-c2c(Sc3ccccc3)c3cc(-c4ccc5c(c4)OCO5)ccc3n2C)cc1 | inactive
Fc1ccc(NC(=S)NCc2cccs2)cc1 | inconclusive: 29.1 µM [cytotoxic, single point]
COc1c(N2CCN(C(=S)Nc3ccccc3F)C(C)C2)c(F)cc2c(=O)c(C(=O)O)cn(C3CC3)c12 (stereo not drawn) | inconclusive: 16.4 µM [cytotoxic, single point]
